# Results: the supplement of paper PMC6411743
# ± gives the standard deviation of the averaged measurements. The entries are a selection whose mix differs from that of the whole data set.
# Molecular target: VKORC1 (UniProt Q9BQB6)
# Experiment: NP40-soluble protein abundance relative to vehicle (solubility fold change) (ratio); higher = more soluble protein in presence of AMP-PNP
# Outline: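 In three independent experiments, Jurkat crude lysate made by Dounce homogenisation was treated for 10 min at room temperature and then 3 min at 37 °C with eight concentrations ranging from 0.1 to 10 mM. It was then solubilised with 0.8% NP40 plus benzonase for 60 min at 4 °C and ultracentrifuged. The supernatant was TMT-labelled for LC-MS/MS, and each value is the fold change against the detergent-processed vehicle for the same replicate, using vsn-normalised intensities.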
smiles,measurement,setting,value
Nc1ncnc2c1ncn2[C@@H]1O[C@H](COP(=O)(O)OP(=O)(O)NP(=O)(O)O)[C@@H](O)[C@H]1O [adenylyl imidodiphosphate],NP40-soluble protein abundance,concentration: 1mM,0.937 ± 0.034
same,NP40-soluble protein abundance,concentration: 2mM,0.93 ± 0.02
same,NP40-soluble protein abundance,concentration: 4mM,0.948 ± 0.019
same,NP40-soluble protein abundance,concentration: 6mM,0.928 ± 0.042
same,NP40-soluble protein abundance,concentration: 8mM,0.944 ± 0.024
same,NP40-soluble protein abundance,concentration: 10mM,0.947 ± 0.016
